PubChem BioAssay AID1671195, Yale University | 2021

Screen: 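Knockdowns that increase or decrease uptake of fluorescent LDL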 (primary screen)
System: human Huh7 hepatoma cells
Reagents: siRNA pool against human genes, 18 nM
Timing: about 2 to 2.5 days of knockdown, then 8 h LDL uptake
Treatment: DiI-labelled LDL at 30 µg/ml for 8 h, in lipoprotein-deficient serum medium
Measurement: 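Fluorescent LDL signal imaged in cells, scaled to the plate median, robust z-score for each replicate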
Direction: robust z-score: higher = more LDL uptake after knockdown
Active means: 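a gene counts as active if at least two replicate z-scores exceed ±2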
Shown is an unselected part of about 22,000 deposited reagents. About 1,510 of them (6.9%) count as active. 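Active includes knockdowns raising or lowering LDL uptake; positive z-scores mean more uptake, negative mean less.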 Reagents against one gene are numbered here.

target | reagent | robust z-score, replicate 1 | robust z-score, replicate 2 | robust z-score, replicate 3 | outcome
USP30 | 1 | -0.304 | 0.298 | 0.36 | inactive
TMEM183AP3 | 1 | -1.51 | -1.37 | -1.69 | inactive
CAGE1 | 1 | 0.659 | 1.3 | 1.07 | inactive
DPY19L2P2 | 1 | -0.893 | -0.516 | -0.357 | inactive
AGRN | 1 | 0.142 | 0.27 | 0.18 | inactive
C17orf75 | 1 | 1.29 | 1.87 | 1.38 | inactive
PPM1M | 1 | -0.19 | -0.722 | -0.68 | inactive
GTF2H1 | 1 | -0.236 | -0.246 | -0.282 | inactive
KLHL20 | 1 | 3.22 | 1.28 | 1.76 | inactive
LOC390625 (retired record) | 1 | -1.01 | -0.798 | -0.802 | inactive
MAP3K20 | 1 | 0.0618 | -0.669 | -0.408 | inactive
RSL24D1P11 | 1 | -1.04 | -0.938 | -0.715 | inactive
CIRBP-AS1 | 1 | -0.19 | 0.716 | 0.223 | inactive
GATA2 | 1 | 0.335 | 0.298 | 0.374 | inactive
NEO1 | 1 | -0.713 | -0.0354 | 0.378 | inactive
SSB | 1 | 0.462 | 0.122 | 0.742 | inactive
CMYA5 | 1 | 0.927 | 0.165 | 1.99 | inactive
LOC147294 (retired record) | 1 | -0.902 | -0.265 | -0.661 | inactive
CHST8 | 1 | -1.29 | -1.06 | -1.57 | inactive
CLIC4 | 1 | 0.275 | 0.612 | 1.09 | inactive
FNTA | 1 | -2.77 | -1.5 | -1.32 | inactive
PTGDR2 | 1 | -2.32 | -1.32 | -0.244 | inactive
PRRG2 | 1 | -0.517 | 0.0142 | -0.648 | inactive
CELA3A | 1 | -1.93 | -1.69 | -1.67 | inactive
TRAPPC2 | 1 | -0.211 | -0.413 | -1.72 | inactive
TEX56P | 1 | 1.27 | 1.74 | 0.816 | inactive
NOP56P2 | 1 | 0.113 | -2.18 | 0.444 | inactive
EPS8 | 1 | -0.317 | -0.474 | -0.409 | inactive
LOC440241 (retired record) | 1 | -0.514 | -0.614 | -0.158 | inactive
LOC400622 | 1 | 1.2 | 1.21 | 1.18 | inactive
OGDH | 1 | 0.382 | 0.953 | 0.576 | inactive
LOC388298 (retired record) | 1 | -0.982 | -1.02 | -1.1 | inactive
EHD1 | 1 | 1.6 | 2.86 | 2.18 | active
TAT | 1 | -0.262 | -0.174 | -0.538 | inactive
TCEAL2 | 1 | 2.37 | 0.97 | 1.68 | inactive
LY75 | 1 | -0.942 | -1.03 | -1.08 | inactive
PXDC1 | 1 | -0.112 | -0.446 | 0.0984 | inactive
PER3 | 1 | -1.32 | -0.497 | -1.19 | inactive
DCAF6 | 1 | -0.0256 | -1.68 | -0.555 | inactive
NME5 | 1 | -1.03 | -0.0788 | -1.32 | inactive
OTUD1 | 1 | 0.516 | 0.436 | 1.06 | inactive
TMEM185A | 1 | 0.877 | 0.55 | 1.11 | inactive

Next part (7 carried over from the part before).
target | reagent | robust z-score, replicate 1 | robust z-score, replicate 2 | robust z-score, replicate 3 | outcome
LY75 | 1 | -0.942 | -1.03 | -1.08 | inactive
PXDC1 | 1 | -0.112 | -0.446 | 0.0984 | inactive
PER3 | 1 | -1.32 | -0.497 | -1.19 | inactive
DCAF6 | 1 | -0.0256 | -1.68 | -0.555 | inactive
NME5 | 1 | -1.03 | -0.0788 | -1.32 | inactive
OTUD1 | 1 | 0.516 | 0.436 | 1.06 | inactive
TMEM185A | 1 | 0.877 | 0.55 | 1.11 | inactive
CD69 | 1 | 0.0326 | 0.361 | -0.183 | inactive
LOC389253 (retired record) | 1 | 0.775 | 0.382 | 1.28 | inactive
ODC1 | 1 | -1.62 | -1.47 | -1.3 | inactive
TNP2 | 1 | -1.45 | -1.79 | -1.32 | inactive
NCOR2 | 1 | 1.58 | 0.319 | 1.42 | inactive
KDELR3 | 1 | -0.999 | 1.1 | -1.56 | inactive
H3P44 | 1 | 0.968 | 0.694 | 0.637 | inactive
TM2D2 | 1 | -0.286 | -0.393 | 0.0281 | inactive
CALHM5 | 1 | 0.861 | 0.997 | 0.782 | inactive
CLIC3 | 1 | 0.255 | -0.103 | 1.09 | inactive
TP53INP2 | 1 | -0.697 | -0.945 | -0.377 | inactive
ABCC11 | 1 | 0.961 | 0.927 | 0.604 | inactive
ASTILCS | 1 | -0.754 | -0.0319 | -0.418 | inactive
CCNF | 1 | -0.125 | 1.13 | 0.0528 | inactive
SLC26A3 | 1 | -1.77 | -1.79 | -1.45 | inactive
LOC389703 (retired record) | 1 | -0.735 | -0.827 | -0.503 | inactive
LOC440588 (retired record) | 1 | -0.377 | -0.313 | -0.383 | inactive
RPL31P33 | 1 | 1.02 | 0.86 | 0.524 | inactive
OR7D4 | 1 | 0.242 | -0.196 | -0.851 | inactive
PSMD12 | 1 | 0.721 | 0.618 | -0.372 | inactive
LRRN2 | 1 | 0.261 | 0.246 | 0.549 | inactive
MATR3 | 1 | -0.0868 | -0.542 | -0.865 | inactive
ZNF449 | 1 | -0.549 | -0.0706 | 0.151 | inactive
BTRC | 1 | 2.22 | 1.62 | 1.84 | inactive
MIF4GD | 1 | -0.339 | -0.514 | -0.297 | inactive
GOLGA3 | 1 | 1.38 | 1.12 | -0.151 | inactive
ZNF829 | 1 | -0.0241 | 0.25 | 0.0569 | inactive
HAUS3 | 1 | 1.75 | 1.44 | 1.49 | inactive
SMIM30 | 1 | 1.21 | -0.0998 | 1.28 | inactive
LOC442461 (retired record) | 1 | -0.779 | -1.06 | -0.721 | inactive
HOXB2 | 1 | 0.78 | 0.541 | 0.776 | inactive
OLFML3 | 1 | 1.25 | -0.0355 | 0.0431 | inactive
LOC339306 (retired record) | 1 | 0.711 | 0.944 | 0.961 | inactive
SNCAIP | 1 | -1.61 | -1.36 | -2.05 | inactive
ARF1 | 1 | -0.794 | 0.2 | -0.178 | inactive
ITPKA | 1 | -0.425 | -0.676 | -0.473 | inactive
SRCIN1 | 1 | 1.35 | 1.28 | 0.899 | inactive
USP42 | 1 | 0.152 | 0.501 | 0.489 | inactive
POLR2H | 1 | 0.98 | 0.865 | 0.557 | inactive
TNRC18 | 1 | 0.498 | 0.996 | 0.0571 | inactive
TNRC18 | 2 | -0.987 | -0.557 | -0.0882 | inactive
LOC166994 (retired record) | 1 | -0.302 | 0.215 | -0.373 | inactive
HNRNPA1P33 | 1 | -1.33 | -1.08 | -1.61 | inactive
FREM2 | 1 | 0.133 | -0.046 | 0.697 | inactive
NCBP1 | 1 | -0.626 | -0.557 | -0.229 | inactive
